From patent US8344177B2, “Albumin binding molecules and uses thereof” (Philochem AG, priority 2006, dated 2013)
At least one compound was matched to its structure with a doubt left.

Assay: Fluorescein angiographic analysis of the retina (scanning-laser ophthalmoscopy)
Assay type: in vivo, C57BL/6 mice
Details: mice, 50 nmol i.v., images 1, 5, 20, 60 min
Experimental: To obtain functional information on the imaging properties of 428-D-Lys-FAM, a fluorescein angiographic analysis of the retina was performed. Fluorescein and 428-D-Lys-FAM were injected i.v. into mice and pictures of the eye fundus taken at different time-points. The fluorescein angiographic pictures confirmed the results of the pharmacokinetic studies.
Scanning-laser opthalmoscopy imaging was performed with a Heidelberg Retina Angiograph (HRA I, Heidelberg Engineering, Germany), a confocal scanning-laser opthalmoscope, according to previously described procedures [see reference 39]. Briefly, wild-type C57BL/6 mice were anaesthetized with ketamine (66.7 mg/kg) and xylazine (11.7 mg./kg), and their pupils were dilated with tropicamide eye drops (Mydriaticum Stulln, Pharma Stulln, Germany). The HRA features two argon wavelengths (488 nm and 514 nm) in the short wavelength range and two infrared diode lasers (795 nm and 830 nm) in the long wavelength range. The laser wavelength of 488 nm was used for fluorescein angiography, with a barrier filter at 500 nm. Four mice each received either 50 nmol of fluorescein or 428-D-Lys-FAM dissolved in 100 μl of 100 mM Tris/HCl, 105 mM NaCl, pH 8.2 injected i.v. into the tail. […] In particular, the brightness value in this study was fixed so that the brightest image (428-D-Lys-FAM at 1 minute following injection) could be recorded without overexposure. […]

## O=C1OC2(c3ccc(O)cc3Oc3cc(O)ccc32)c2ccccc21 [fluorescein]
  staining of the blood vessels (eye fundus): weak even at early time points
